Data reported in the supplement of paper PMC10849652.
This is one part of the list.

Chains of the proteins cited; added tags and fusions are not shown. Lines headed by an entry give the natural chain unless they say otherwise; changes in a name come on top.
UniProt P78368: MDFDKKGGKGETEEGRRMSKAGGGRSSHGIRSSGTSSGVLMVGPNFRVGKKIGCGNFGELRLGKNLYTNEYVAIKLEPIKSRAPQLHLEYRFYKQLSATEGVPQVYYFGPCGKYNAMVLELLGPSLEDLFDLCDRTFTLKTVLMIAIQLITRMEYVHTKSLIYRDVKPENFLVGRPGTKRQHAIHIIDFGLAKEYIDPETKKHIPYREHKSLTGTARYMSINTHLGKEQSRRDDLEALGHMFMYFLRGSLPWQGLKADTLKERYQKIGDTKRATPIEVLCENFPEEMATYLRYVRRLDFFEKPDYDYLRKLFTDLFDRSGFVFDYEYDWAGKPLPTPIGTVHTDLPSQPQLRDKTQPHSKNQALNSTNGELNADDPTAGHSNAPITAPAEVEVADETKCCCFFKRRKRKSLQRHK
UniProt Q13618, whole entry, looked up: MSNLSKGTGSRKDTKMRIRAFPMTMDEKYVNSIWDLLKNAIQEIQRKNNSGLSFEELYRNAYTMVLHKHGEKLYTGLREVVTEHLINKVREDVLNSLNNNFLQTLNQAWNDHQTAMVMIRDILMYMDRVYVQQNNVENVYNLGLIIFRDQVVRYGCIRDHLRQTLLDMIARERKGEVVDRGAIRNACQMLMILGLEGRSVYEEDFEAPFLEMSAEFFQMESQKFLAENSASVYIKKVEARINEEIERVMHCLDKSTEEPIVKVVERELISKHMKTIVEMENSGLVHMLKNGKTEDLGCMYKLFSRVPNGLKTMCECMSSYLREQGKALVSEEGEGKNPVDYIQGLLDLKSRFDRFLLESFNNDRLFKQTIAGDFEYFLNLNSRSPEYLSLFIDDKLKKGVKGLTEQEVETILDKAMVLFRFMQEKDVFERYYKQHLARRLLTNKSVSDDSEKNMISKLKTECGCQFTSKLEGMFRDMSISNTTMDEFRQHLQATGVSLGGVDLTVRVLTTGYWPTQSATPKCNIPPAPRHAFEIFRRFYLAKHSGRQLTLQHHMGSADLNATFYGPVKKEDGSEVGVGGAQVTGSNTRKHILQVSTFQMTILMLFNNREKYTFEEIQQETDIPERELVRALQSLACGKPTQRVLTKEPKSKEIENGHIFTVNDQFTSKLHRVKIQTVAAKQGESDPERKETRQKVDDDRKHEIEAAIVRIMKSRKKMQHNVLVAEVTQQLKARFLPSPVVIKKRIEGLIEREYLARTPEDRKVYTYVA
UniProt P53634: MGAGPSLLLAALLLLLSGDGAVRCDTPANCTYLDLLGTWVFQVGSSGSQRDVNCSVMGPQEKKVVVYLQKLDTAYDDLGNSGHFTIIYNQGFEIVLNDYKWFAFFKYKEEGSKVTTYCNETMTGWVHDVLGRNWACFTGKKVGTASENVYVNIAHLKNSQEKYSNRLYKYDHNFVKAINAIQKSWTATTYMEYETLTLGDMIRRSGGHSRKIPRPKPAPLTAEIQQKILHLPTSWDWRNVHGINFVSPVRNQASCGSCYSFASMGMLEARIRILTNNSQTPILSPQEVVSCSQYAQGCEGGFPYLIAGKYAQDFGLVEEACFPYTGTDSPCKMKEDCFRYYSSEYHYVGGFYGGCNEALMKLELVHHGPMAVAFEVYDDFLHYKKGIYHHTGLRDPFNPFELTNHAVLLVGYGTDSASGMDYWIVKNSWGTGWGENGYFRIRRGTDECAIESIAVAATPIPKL
UniProt Q93034, whole entry, looked up: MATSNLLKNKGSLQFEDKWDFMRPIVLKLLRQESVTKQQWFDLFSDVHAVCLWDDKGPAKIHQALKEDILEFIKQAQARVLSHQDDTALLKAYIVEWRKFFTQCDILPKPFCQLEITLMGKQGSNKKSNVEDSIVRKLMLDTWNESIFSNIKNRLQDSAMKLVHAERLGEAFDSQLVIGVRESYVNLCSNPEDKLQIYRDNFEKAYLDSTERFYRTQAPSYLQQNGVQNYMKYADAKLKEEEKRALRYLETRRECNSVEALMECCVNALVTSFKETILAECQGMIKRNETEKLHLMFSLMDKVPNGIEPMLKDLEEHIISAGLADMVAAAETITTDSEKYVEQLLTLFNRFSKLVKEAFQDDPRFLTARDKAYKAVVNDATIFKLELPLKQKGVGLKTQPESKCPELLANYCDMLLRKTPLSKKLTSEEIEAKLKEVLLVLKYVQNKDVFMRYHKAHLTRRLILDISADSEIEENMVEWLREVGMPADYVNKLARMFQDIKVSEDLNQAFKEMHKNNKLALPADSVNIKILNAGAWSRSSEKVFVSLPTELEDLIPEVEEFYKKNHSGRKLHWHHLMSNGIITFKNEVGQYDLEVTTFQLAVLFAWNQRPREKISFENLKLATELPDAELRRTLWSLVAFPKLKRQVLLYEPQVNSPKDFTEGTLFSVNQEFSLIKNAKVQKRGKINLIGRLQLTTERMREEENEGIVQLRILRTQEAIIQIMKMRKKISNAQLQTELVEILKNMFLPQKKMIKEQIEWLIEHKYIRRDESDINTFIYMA
UniProt P67870, whole entry, looked up: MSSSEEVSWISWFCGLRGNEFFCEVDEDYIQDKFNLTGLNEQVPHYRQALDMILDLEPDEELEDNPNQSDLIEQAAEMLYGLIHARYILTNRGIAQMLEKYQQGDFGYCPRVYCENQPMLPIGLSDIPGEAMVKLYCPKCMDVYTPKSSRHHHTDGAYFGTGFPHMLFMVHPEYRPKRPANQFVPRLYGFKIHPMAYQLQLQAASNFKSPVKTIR
UniProt Q5TZA2: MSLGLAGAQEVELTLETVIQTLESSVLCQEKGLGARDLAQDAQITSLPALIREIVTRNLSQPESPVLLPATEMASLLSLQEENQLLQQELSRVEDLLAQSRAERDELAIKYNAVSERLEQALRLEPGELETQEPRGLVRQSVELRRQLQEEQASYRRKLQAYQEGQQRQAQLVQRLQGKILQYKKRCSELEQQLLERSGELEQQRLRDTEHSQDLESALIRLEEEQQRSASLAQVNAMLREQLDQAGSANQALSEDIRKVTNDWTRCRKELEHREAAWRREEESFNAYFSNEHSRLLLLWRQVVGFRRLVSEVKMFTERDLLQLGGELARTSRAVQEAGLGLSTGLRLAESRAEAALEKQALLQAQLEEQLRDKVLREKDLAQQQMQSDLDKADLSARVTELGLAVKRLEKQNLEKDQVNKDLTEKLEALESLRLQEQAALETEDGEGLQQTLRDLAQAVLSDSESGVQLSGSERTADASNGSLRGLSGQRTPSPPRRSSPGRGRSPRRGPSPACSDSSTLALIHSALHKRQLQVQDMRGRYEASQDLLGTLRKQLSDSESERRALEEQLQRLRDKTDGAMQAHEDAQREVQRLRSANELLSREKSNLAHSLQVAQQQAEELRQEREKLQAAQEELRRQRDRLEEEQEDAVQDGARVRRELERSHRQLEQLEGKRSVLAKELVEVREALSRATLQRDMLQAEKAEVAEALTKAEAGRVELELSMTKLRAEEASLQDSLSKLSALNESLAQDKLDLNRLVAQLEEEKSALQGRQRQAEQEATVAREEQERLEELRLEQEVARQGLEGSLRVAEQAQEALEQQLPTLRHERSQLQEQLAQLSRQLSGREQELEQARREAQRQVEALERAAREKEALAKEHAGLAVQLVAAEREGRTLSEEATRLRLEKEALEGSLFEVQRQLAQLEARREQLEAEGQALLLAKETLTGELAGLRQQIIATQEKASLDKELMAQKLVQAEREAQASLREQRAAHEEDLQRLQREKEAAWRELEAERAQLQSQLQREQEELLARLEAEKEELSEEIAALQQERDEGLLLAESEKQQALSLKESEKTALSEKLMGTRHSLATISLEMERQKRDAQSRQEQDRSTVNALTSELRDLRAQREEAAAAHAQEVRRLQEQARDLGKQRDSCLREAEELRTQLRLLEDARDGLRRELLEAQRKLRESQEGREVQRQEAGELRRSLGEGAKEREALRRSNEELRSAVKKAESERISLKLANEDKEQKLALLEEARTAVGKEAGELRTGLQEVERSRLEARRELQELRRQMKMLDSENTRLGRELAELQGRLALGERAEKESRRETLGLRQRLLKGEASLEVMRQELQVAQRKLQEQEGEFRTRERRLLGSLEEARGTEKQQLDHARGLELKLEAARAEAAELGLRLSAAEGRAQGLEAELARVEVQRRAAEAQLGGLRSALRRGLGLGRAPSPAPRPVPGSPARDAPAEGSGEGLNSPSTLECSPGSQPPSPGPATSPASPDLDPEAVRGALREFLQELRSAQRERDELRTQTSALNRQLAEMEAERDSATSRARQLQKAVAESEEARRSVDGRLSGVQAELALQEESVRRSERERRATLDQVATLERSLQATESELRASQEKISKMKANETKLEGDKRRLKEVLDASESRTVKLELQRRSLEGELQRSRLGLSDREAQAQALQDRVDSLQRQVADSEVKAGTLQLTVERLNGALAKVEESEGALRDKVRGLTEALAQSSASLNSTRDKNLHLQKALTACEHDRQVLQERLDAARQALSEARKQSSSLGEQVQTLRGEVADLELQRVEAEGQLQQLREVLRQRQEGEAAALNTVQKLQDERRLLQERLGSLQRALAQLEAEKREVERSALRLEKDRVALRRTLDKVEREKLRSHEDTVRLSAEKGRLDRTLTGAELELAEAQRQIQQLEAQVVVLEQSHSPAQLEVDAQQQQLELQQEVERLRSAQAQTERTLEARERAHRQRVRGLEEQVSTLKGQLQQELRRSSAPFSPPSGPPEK
UniProt Q13617, whole entry, looked up: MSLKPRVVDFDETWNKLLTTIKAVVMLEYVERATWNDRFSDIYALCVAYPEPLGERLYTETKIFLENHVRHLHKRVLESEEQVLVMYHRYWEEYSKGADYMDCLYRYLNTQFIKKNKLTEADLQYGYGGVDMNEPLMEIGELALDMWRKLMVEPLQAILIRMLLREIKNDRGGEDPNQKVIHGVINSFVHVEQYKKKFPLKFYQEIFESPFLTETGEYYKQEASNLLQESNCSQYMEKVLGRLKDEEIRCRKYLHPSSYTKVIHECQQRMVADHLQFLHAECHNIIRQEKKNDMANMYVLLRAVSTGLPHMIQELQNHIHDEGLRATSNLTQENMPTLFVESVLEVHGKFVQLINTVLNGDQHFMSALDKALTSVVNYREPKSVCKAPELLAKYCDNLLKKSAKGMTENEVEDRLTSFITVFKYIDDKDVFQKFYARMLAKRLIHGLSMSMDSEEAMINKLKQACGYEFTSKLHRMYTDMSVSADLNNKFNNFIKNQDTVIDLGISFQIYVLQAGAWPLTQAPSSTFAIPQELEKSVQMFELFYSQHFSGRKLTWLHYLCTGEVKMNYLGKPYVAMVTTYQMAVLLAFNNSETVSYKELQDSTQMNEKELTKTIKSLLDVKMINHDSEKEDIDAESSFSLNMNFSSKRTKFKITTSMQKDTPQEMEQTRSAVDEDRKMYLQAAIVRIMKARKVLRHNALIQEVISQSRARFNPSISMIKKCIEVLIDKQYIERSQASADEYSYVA

Tests used:
Experiment in all cases: log2 fold change, soluble protein after heating vs DMSO (PISA); higher = thermal stabilisation; K562 lysate, 10 uM; active = over 0.2 and 3.5 SD of the protein, either way, in both replicates (recomputed)
erlotinib = compound: C#Cc1cccc(Nc2ncnc3cc(OCCOC)c(OCCOC)cc23)c1 [erlotinib]
Summary of the method: (§1)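 Thermal stability, expressed as log-two fold change relative to solvent controls, is given from duplicates. Crude K562 extract in PBS pH 7.4 with 1 mM MgCl2, at 1 mg/mL protein, was treated with 10 μM compound for 30 min and heated in aliquots for 3 min across 48°C-58°C. After pooling, adjustment to 0.5% NP-40 at 4°C and centrifugation at 21,000xg for 90 min, supernatant protein was measured by TMTpro 16plex LC-MS/MS with channel sums equalised.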

[1] = compound: C/C(=N\NC(=O)C1=CC(=CC=C1)S(=O)(=O)N2CCOCC2)/C3=C(C=CC(=C3)Cl)O
Summary of the method: as §1

[2] = compound: C1=CC(=CC=C1C2=NC3=C(N2)C=C(C=C3)C(=O)N)OC4=CC=C(C=C4)Cl
Summary of the method: as §1

[3] = compound: C1=CC2=C(C=CC(=C2)/C=C\3/C(=O)NC(=NCC4=CC=CS4)S3)N=C1
Summary of the method: as §1

[4] = compound: C1=CC2=NC=CN=C2C=C1/C=C/3\C(=O)NC(=O)S3
Summary of the method: as §1

[5] = compound: C1=CC=C(C=C1)C2=NC(=C(N2)C3=CC=NC=C3)C4=CC(=C(C=C4)Cl)O
Summary of the method: as §1

[6] = compound: C1=CC=C2C(=C1)C3=NNC4=CC=CC(=C43)C2=O
Summary of the method: as §1

[7] = compound: C1CCN(C1)C(=O)NC2=CC=CC(=C2)NC3=NC=C(C(=N3)NCCC4=CN=CN4)Br
Summary of the method: as §1

[8] = compound: C1CN(CCC1(CC2=CC=C(C=C2)Cl)N)C3=NC=NC4=C3C=CN4
Summary of the method: as §1

IRAK-1-4 Inhibitor I = compound: C1COCCN1CCN2C3=CC=CC=C3N=C2NC(=O)C4=CC(=CC=C4)[N+](=O)[O-] [IRAK-1-4 Inhibitor I]
Summary of the method: as §1

ibrutinib = compound: C=CC(=O)N1CCC[C@@H](n2nc(-c3ccc(Oc4ccccc4)cc3)c3c(N)ncnc32)C1 [ibrutinib]
Summary of the method: as §1

[9] = compound: CC(=O)c1cnc2ccc(-c3cc(Cl)c(O)c(Cl)c3)nc2c1N[C@H]1CC[C@H](CN(C)C)CC1
Summary of the method: as §1

ralimetinib = compound: CC(C)(C)Cn1c(N)nc2ccc(-c3[nH]c(C(C)(C)C)nc3-c3ccc(F)cc3)nc21 [ralimetinib]
Summary of the method: as §1

[10] = compound: CC(C)(O)CC(=O)NCCn1ccc2ncnc(Nc3ccc(Oc4cccc(C(F)(F)F)c4)c(Cl)c3)c21
Summary of the method: as §1

[11] = compound: CC(C)C1=C2N=C(C=C(N2N=C1)NCC3=CC=CC=C3)NCCCCCCN
Summary of the method: as §1

[12] = compound: CC1=C(C(CC(=O)N1)C2=CC=C(C=C2)C(F)(F)F)C(=O)NC3=C(C=C4C(=C3)C=NN4)F
Summary of the method: as §1

[13] = compound: CC1=C(C2=C(C=C1)C(=O)C3=CC=CC=C3N2CCCN)C
Summary of the method: as §1

[14] = compound: CC1=C(C=C(C=C1)NC(=O)C2=CC(=CC=C2)C(C)(C)C#N)NC3=CC4=C(C=C3)N=CN(C4=O)C
Summary of the method: as §1

[15] = compound: CC1=C(C=C(C=C1)NC(=O)C2=CC(=CC=C2)N(C)C)NC(=O)C3=CC=C(C=C3)O
Summary of the method: as §1

[16] = compound: CC1=CC=C(C=C1)SC2=C3C=C(SC3=CN=C2)C(=O)N
Summary of the method: as §1

Measured: log2 fold change

CSNK1G2 (UniProt P78368)
inactive: erlotinib -0.111 | [1] -0.053 | [2] 0.141 | [3] 0.163 | [4] 0.158 | [5] -0.002 | [6] 0.322 | [7] 0.083 | [8] 0.056 | IRAK-1-4 Inhibitor I -0.115 | ibrutinib -0.007 | [9] 0.263 | ralimetinib 0.06 | [10] -0.116 | [11] -0.039 | [12] -0.042 | [13] 0.034 | [14] -0.032 | [15] -0.092 | [16] -0.003

CUL3 (UniProt Q13618)
inactive: erlotinib 0.018 | [1] -0.002 | [2] -0.009 | [3] -0.018 | [4] 0.006 | [5] -0.003 | [6] 0.006 | [7] 0.002 | [8] 0.016 | IRAK-1-4 Inhibitor I 0.02 | ibrutinib -0.004 | [9] -0.006 | ralimetinib -0.003 | [10] -0.023 | [11] -0.036 | [12] -0.011 | [13] 0.012 | [14] 0 | [15] -0.025 | [16] 0.003

CTSC (UniProt P53634)
inactive: erlotinib 0.006 | [1] -0.107 | [2] -0.008 | [3] 0.008 | [4] 0.019 | [5] 0.045 | [6] -0.044 | [7] -0.005 | [8] 0.017 | IRAK-1-4 Inhibitor I 0.004 | ibrutinib -0.073 | [9] 0.019 | ralimetinib -0.04 | [10] 0.051 | [11] -0.014 | [12] -0.01 | [13] -0.018 | [14] 0.008 | [15] -0.007 | [16] 0.001

CUL5 (UniProt Q93034)
inactive: erlotinib 0 | [1] -0.035 | [2] -0.008 | [3] -0.009 | [4] -0.006 | [5] -0.008 | [6] 0.023 | [7] 0.006 | [8] -0.003 | IRAK-1-4 Inhibitor I 0.003 | ibrutinib -0.001 | [9] -0.008 | ralimetinib 0.004 | [10] -0.027 | [11] -0.004 | [12] -0.02 | [13] -0.007 | [14] 0.004 | [15] -0.004 | [16] 0.007

CSNK2B (UniProt P67870)
active: [4] 0.33 | [9] 0.408
inactive: erlotinib 0.045 | [1] -0.107 | [2] -0.039 | [3] 0.151 | [5] -0.012 | [6] 0.198 | [7] 0.145 | [8] 0.041 | IRAK-1-4 Inhibitor I 0.021 | ibrutinib -0.004 | ralimetinib 0.003 | [10] -0.013 | [11] 0 | [12] -0.054 | [13] 0.114 | [14] -0.004 | [15] -0.015 | [16] -0.016

Copied from above (two entries):
CSNK1G2 (UniProt P78368)
inactive: erlotinib -0.111 | [1] -0.053 | [2] 0.141 | [3] 0.163 | [4] 0.158 | [5] -0.002 | [6] 0.322 | [7] 0.083 | [8] 0.056 | IRAK-1-4 Inhibitor I -0.115 | ibrutinib -0.007 | [9] 0.263 | ralimetinib 0.06 | [10] -0.116 | [11] -0.039 | [12] -0.042 | [13] 0.034 | [14] -0.032 | [15] -0.092 | [16] -0.003

CUL3 (UniProt Q13618)
inactive: erlotinib 0.018 | [1] -0.002 | [2] -0.009 | [3] -0.018 | [4] 0.006 | [5] -0.003 | [6] 0.006 | [7] 0.002 | [8] 0.016 | IRAK-1-4 Inhibitor I 0.02 | ibrutinib -0.004 | [9] -0.006 | ralimetinib -0.003 | [10] -0.023 | [11] -0.036 | [12] -0.011 | [13] 0.012 | [14] 0 | [15] -0.025 | [16] 0.003

Going on with the list:

CROCC (UniProt Q5TZA2)
inactive: erlotinib -0.046 | [1] -0.019 | [2] -0.11 | [3] -0.116 | [4] 0.047 | [5] 0.159 | [6] -0.002 | [7] 0.002 | [8] 0.008 | IRAK-1-4 Inhibitor I 0.047 | ibrutinib -0.013 | [9] 0.099 | ralimetinib 0.006 | [10] -0.03 | [11] -0.083 | [12] -0.064 | [13] -0.075 | [14] 0.176 | [15] -0.057 | [16] 0.019

CUL2 isoform 2 (UniProt Q13617)
inactive: erlotinib 0.002 | [1] -0.044 | [2] -0.001 | [3] 0.022 | [4] 0.012 | [5] -0.032 | [6] 0.019 | [7] -0.011 | [8] 0.007 | IRAK-1-4 Inhibitor I -0.013 | ibrutinib -0.004 | [9] 0.001 | ralimetinib 0.013 | [10] 0.002 | [11] -0.025 | [12] -0.008 | [13] 0.023 | [14] -0.007 | [15] -0.001 | [16] 0.012

CUL7 isoform 2 (UniProt Q14999)
inactive: erlotinib -0.068 | [1] -0.132 | [2] -0.084 | [3] 0.133 | [4] 0.026 | [5] 0.056 | [6] 0.088 | [7] 0.007 | [8] 0.065 | IRAK-1-4 Inhibitor I -0.034 | ibrutinib -0.096 | [9] 0.001 | ralimetinib -0.026 | [10] -0.103 | [11] 0.004 | [12] 0.063 | [13] -0.163 | [14] -0.017 | [15] -0.021 | [16] -0.179
